PubChem BioAssay AID652259 – Drosophila RNAi Screening Center | 2013

- Screen: 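Genome-wide hunt for genes that control Wingless pathway activity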 (primary screen)
- Cells: Drosophila clone 8 imaginal disc epithelial cells
- Knock-down reagent: long dsRNA against Drosophila genes
- Challenge: pathway stimulated by co-transfected Wingless expression plasmid
- Measurement: 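Dual luciferase reads per well after Wingless plasmid stimulation: reporter firefly light and Renilla control light; activity is firefly divided by Renilla, a ratio not deposited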
- Direction: firefly reporter light: higher = more Wg reporter light, before normalisation; Renilla control light: higher = more transfected or surviving cells
- Rule for the call: 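a knock-down is a candidate when at least two out of four statistical tests show it departing from its plate mean; one test alone signals a weak candidate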
- Calls: active = candidate regulator (raises or lowers reporter); inactive = not a candidate
In all, the deposit lists about 22,000 reagents; shown is a random part of those with a known target gene and a result. In the full data, 233 (1.1%) were called active. 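Light values are raw, unnormalised plate reads; the ratio scores behind the reporter calls were not deposited.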 Unmarked entries are inactive. The numbers tell different reagents against one gene apart. Names joined by + are all predicted targets of the reagent. Not given: the amount of reagent, the time to read-out, the dose of the treatment.

no.	Gene	reagent no.	firefly reporter light, replicate 1	firefly reporter light, replicate 2	Renilla control light, replicate 1	Renilla control light, replicate 2
1	CG2126 (GeneID 43748)	1	20762		16100	
2	lin (GeneID 45325)	1	2731	10776	442	4544
3	dpy (GeneID 318824)	1	12179		7785	
4	dpy (GeneID 318824)	2	18755		8409	
5	dpy (GeneID 318824)	3	3741	7571	1489	2661
6	lap (GeneID 40863)	1	7015		2754	
7	NimC2 (GeneID 34818)	1	1729	10578	989	4134
8	miple1 (GeneID 38047)	1	6556		3303	
9	Girdin (GeneID 38385)	1	7147		2825	
10	CG33003 (GeneID 318826)	1	6.75e5	6.53e5	2.89e5	2.80e5
11	CG13239 (GeneID 40503)	1	9797		3803	
12	CG32447 (GeneID 40412)	1	7785		3852	
13	CG32447 (GeneID 40412)	2	20464		5238	
14	Ir60d (GeneID 7354402)	1	3387	9437	1061	3493
15	CG7432 (GeneID 42347)	1	19656		3881	
16	CG9171 (GeneID 33807)	1	17272		8480	
17	CG9171 (GeneID 33807)	2	4.79e5	3.74e5	1.86e5	1.58e5
18	mthl8 (GeneID 38013)	1	16422		3820	
19	mthl8 (GeneID 38013)	2	6112		3008	
20	Sirt6 (GeneID 41254)	1	10145		2848	
21	RpL37-1 (GeneID 32446)	1	21442		8644	
22	RpL37-1 (GeneID 32446)	2	5.76e5	6.40e5	2.19e5	2.12e5
23	RpS29 + snoRNA:Psi18S-1275	1	8064		2587	
24	sl (GeneID 32601)	1	1424	4506	754	1846
25	sl (GeneID 32601)	2	2.37e5	2.71e5	1.25e5	1.24e5
26	CSN5 (GeneID 42000)	1	5394	10704	2029	4442
27	CSN5 (GeneID 42000)	2	7.79e5	7.51e5	3.35e5	3.46e5
28	Agpat2 (GeneID 34176)	1	6423		2644	
29	Wnt10 (GeneID 34011)	1	21804		10204	
30	Wnt10 (GeneID 34011)	2	2170	4984	605	1890

No new results follow: an excerpt of the list.
no.	Gene	reagent no.	firefly reporter light, replicate 1	firefly reporter light, replicate 2	Renilla control light, replicate 1	Renilla control light, replicate 2
25	sl (GeneID 32601)	2	2.37e5	2.71e5	1.25e5	1.24e5
26	CSN5 (GeneID 42000)	1	5394	10704	2029	4442
27	CSN5 (GeneID 42000)	2	7.79e5	7.51e5	3.35e5	3.46e5
28	Agpat2 (GeneID 34176)	1	6423		2644	

Additional records:
no.	Gene	reagent no.	firefly reporter light, replicate 1	firefly reporter light, replicate 2	Renilla control light, replicate 1	Renilla control light, replicate 2
31	Nt5a (GeneID 38148)	1	17335		5477	
32	CG30098 (GeneID 246456)	1	16797		13187	
33	trio (GeneID 43974)	1	2506		520	
34	trio (GeneID 43974)	2	8027		2336	
35	trio (GeneID 43974)	3	5205		2636	
36	tld (GeneID 42945)	1	12480		9851	
37	SK (GeneID 31456)	1	3058		656	
38	SK (GeneID 31456)	2	24800		11334	
39	SK (GeneID 31456)	3	12409		9205	
40	SK (GeneID 31456)	4	21020		12502	
41	SK (GeneID 31456)	5	3155	5064	896	1640
42	SK (GeneID 31456)	6	7.49e5	7.65e5	1.22e5	1.37e5
43	CG11414 (GeneID 37923)	1	7964		3132	
44	Pdp1 (GeneID 45588)	1	1640		340	
45	Pdp1 (GeneID 45588)	2	2909		379	
46	Pdp1 (GeneID 45588)	3	2628	11474	1616	3062
47	px (GeneID 37573)	1	5120		769	
48	CG11560 (GeneID 39376)	1	3293		1744	
49	CG31128 (GeneID 318601)	1	4656		1973	
